Paper PMC7819943, “Rice protein-binding microarrays: a tool to detect cis-acting elements near promoter regions in rice”
Some of the results follow.

Molecular target: T1, OsSMF1 (Oryza sativa, UniProt Q6ZLB0 1-436)
T1 sequence: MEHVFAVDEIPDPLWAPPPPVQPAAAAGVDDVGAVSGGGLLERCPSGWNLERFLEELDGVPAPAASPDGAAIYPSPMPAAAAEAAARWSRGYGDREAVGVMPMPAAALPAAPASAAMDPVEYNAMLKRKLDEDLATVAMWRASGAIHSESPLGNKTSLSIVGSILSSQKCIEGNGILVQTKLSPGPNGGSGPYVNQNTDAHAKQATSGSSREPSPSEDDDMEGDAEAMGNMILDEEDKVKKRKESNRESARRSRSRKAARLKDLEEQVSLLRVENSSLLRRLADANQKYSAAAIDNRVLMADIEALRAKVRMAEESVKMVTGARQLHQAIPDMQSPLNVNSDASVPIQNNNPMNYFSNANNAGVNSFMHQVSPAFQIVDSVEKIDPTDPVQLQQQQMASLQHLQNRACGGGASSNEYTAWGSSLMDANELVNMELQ
Assay: protein-binding microarray (RPBM); PBS, 2% BSA, 51.3 ng/ul salmon testes DNA, 50 uM zinc acetate, 200 nM TF, 25 C, 1 h; high values mean tight binding
Conditions: protein: recombinant; tags: N-terminal polyhistidine and DsRed monomer fusion (pET32a); chain copies: 2; label: CyDye5-dUTP incorporated in the synthesized complementary strand; 3' TTTTT single-stranded linker to array surface; dsDNA, one strand shown
Summary of the method: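 Binding signal here means per-feature fluorescence intensity in arbitrary units. The values were read on an Axon 4000B scanner after a custom Agilent array, double-stranded by primer extension with Cy5-dUTP, was incubated with 200 nM protein at 25 °C for 1 h in PBS with 2% BSA, salmon testes DNA and 50 µM zinc acetate, then washed. The proteins were transcription factors with an N-terminal polyhistidine tag and DsRed, expressed in E. coli BL21-CodonPlus and purified on Ni–NTA.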

Going from “TACGACATGTCATTGGCCATGTCTATCTGACTTTACGTCACGGAGTCACCTAGTGCAG” to “TACGCGACGAATACGTGGGGTCGTGGGCCGCTTTTGCCCGCGGAGTCACCTAGTGCAG”, the binding signal falls from 4700 fluorescence intensity (a.u.) to 3980 fluorescence intensity (a.u.).

First: GAGGTGGCGTGGCGGAGGTCGTCGAAGGAGATGGGGCTCTCGGAGTCACCTAGTGCAG
Second: AAAGTGATCCAGTTTTACAAGATTATGGATGCGCTATATCCGGAGTCACCTAGTGCAG
The binding signal of the first is lower: 26400 fluorescence intensity (a.u.) for the first, 38600 fluorescence intensity (a.u.) for the second.

Going from “GGGAGGGCGGCGGTGAACCATCTGCTCGAGCAAACGCGGACGGAGTCACCTAGTGCAG” to “GAAAATGCCACCAAACACGCCCCTCGCGTTTGACGAGATTCGGAGTCACCTAGTGCAG”, the binding signal falls from 5970 fluorescence intensity (a.u.) to 3360 fluorescence intensity (a.u.).

Compared with “AACAGAAAGGACAAGACGGGAGGGAACGGATTCTTACTCTCGGAGTCACCTAGTGCAG”, “TCAACGTAGTATTTGATGGTGACGTATCATAGTCTCTGTTCGGAGTCACCTAGTGCAG” is higher in binding signal: 4250 fluorescence intensity (a.u.) for the first, 9860 fluorescence intensity (a.u.) for the second.

Compared with “GATTTTATTCTATATGGCATACGCATGACAATCTAGTCAGCGGAGTCACCTAGTGCAG”, “GGCGCCCTTGCGAGCACGTAATCCCGGCCCGGTCACCCAACGGAGTCACCTAGTGCAG” is higher in binding signal: 3440 fluorescence intensity (a.u.) for the first, 3920 fluorescence intensity (a.u.) for the second.

Going from “AGTGCTACGTATGCGTCACATCAACGAAACCGCCCTCTAACGGAGTCACCTAGTGCAG” to “TTCCCTCTTAGAGACGTGGATGCTCCAACAGTTGAACCAGCGGAGTCACCTAGTGCAG”, the binding signal falls from 7480 fluorescence intensity (a.u.) to 3930 fluorescence intensity (a.u.).

Compared with “AAATATGAATTATGACGTAGATTGTGTTGATTTCCTTTTGCGGAGTCACCTAGTGCAG”, “TGCTTCATTGTATTGTCTATATATAGTTGATTATAAGCCACGGAGTCACCTAGTGCAG” is lower in binding signal: 5170 fluorescence intensity (a.u.) for the first, 3820 fluorescence intensity (a.u.) for the second.

Compared with “AACCTCGATAAGTCAGTGTAGTCTAGGCGGTGACGACTCCCGGAGTCACCTAGTGCAG”, “TTTGGTGCGAGCGAAATACCAGGATCTTTATACACATAGCCGGAGTCACCTAGTGCAG” is higher in binding signal: 3220 fluorescence intensity (a.u.) for the first, 58000 fluorescence intensity (a.u.) for the second.

First: AGCTCTAGTTATCTGAGTATGACATGTGGGACCTAAGAGTCGGAGTCACCTAGTGCAG
Second: TTCCCCAACTAAACACACCCTTTATCTCTTACCCTCTGGCCGGAGTCACCTAGTGCAG
The binding signal of the first is higher: 3600 fluorescence intensity (a.u.) for the first, 3190 fluorescence intensity (a.u.) for the second.

Going from “AGGGCGGCAAGCTGACATGGCAGACGACGGCTCGACGGCGCGGAGTCACCTAGTGCAG” to “GGTTGGGAACATGGACAACCGAACATAGTTCTTGGCCATGCGGAGTCACCTAGTGCAG”, the binding signal rises from 6550 fluorescence intensity (a.u.) to 30000 fluorescence intensity (a.u.).

Compared with “TTAAGTACCCGGATATGACTGATAGGCCACGTATCCGTATCGGAGTCACCTAGTGCAG”, “TCGTGTTGTGTCTTGTATATGCTGCTGATCTGAAGATATGCGGAGTCACCTAGTGCAG” is higher in binding signal: 5060 fluorescence intensity (a.u.) for the first, 5330 fluorescence intensity (a.u.) for the second.

Going from “GCATATCTCAGACCATATGAATTGTGTTGAGCTGGCGGTTCGGAGTCACCTAGTGCAG” to “TGACTCTTCTACACCTTCCAGGCTATCCGGAATCGGGAGGCGGAGTCACCTAGTGCAG”, the binding signal falls from 4430 fluorescence intensity (a.u.) to 3260 fluorescence intensity (a.u.).

First: TTCGCCTCCACCTTCATCTGCTCCACCTGCGTCACAGTCACGGAGTCACCTAGTGCAG
Second: CCTCCTCTCCTTGCAGGCGCCACGCCGCCTTTCCATCCCGCGGAGTCACCTAGTGCAG
The binding signal of the first is higher: 3820 fluorescence intensity (a.u.) for the first, 3240 fluorescence intensity (a.u.) for the second.

First: ATCTGCTTCGATGCTCACCCGTGCAGAATTGCACACGTGTCGGAGTCACCTAGTGCAG
Second: ACAATGCCGCACACACGCAGCGGTAGCATAGCCACAGCCGCGGAGTCACCTAGTGCAG
The binding signal of the first is lower: 9170 fluorescence intensity (a.u.) for the first, 23300 fluorescence intensity (a.u.) for the second.

First: GGCCCGCTCCAATGAGAAGTGGACTCGGAGCGGGATTCCCCGGAGTCACCTAGTGCAG
Second: ACTACTTGGGCATTACCTGCTCCACGTGGCCCATATAATACGGAGTCACCTAGTGCAG
The binding signal of the first is lower: 3310 fluorescence intensity (a.u.) for the first, 7040 fluorescence intensity (a.u.) for the second.

Compared with “ATATACTATTCTCATCTGTCATACACACATCACATCTTGACGGAGTCACCTAGTGCAG”, “CTTCTCCTCTCCCCTTGCTCAGTTCATTCAGTTGGCCTCCCGGAGTCACCTAGTGCAG” is lower in binding signal: 25700 fluorescence intensity (a.u.) for the first, 24900 fluorescence intensity (a.u.) for the second.

First: GCGCATCAACAACCTTGTCGTCCATATTGGTCATCGTCAGCGGAGTCACCTAGTGCAG
Second: AAGGCATTGAATCTTACTGCCAACACATCCACCACAGCCTCGGAGTCACCTAGTGCAG
The binding signal of the first is lower: 4960 fluorescence intensity (a.u.) for the first, 5350 fluorescence intensity (a.u.) for the second.

Going from “ACTAGTGACCCTAATTTTCGGTTCGATATTTGAAATTTCCCGGAGTCACCTAGTGCAG” to “ACACACACACACGTAAGTACCCATAACTCCATAAGAATAGCGGAGTCACCTAGTGCAG”, the binding signal falls from 3240 fluorescence intensity (a.u.) to 3150 fluorescence intensity (a.u.).

Compared with “CAAATCTCATGTCATCTTCTCGAAGTGAGCTCCGATGACTCGGAGTCACCTAGTGCAG”, “CCATCAACGAGCACATCTTCTCCACGGTGGACGGCATCATCGGAGTCACCTAGTGCAG” is higher in binding signal: 3740 fluorescence intensity (a.u.) for the first, 5760 fluorescence intensity (a.u.) for the second.

Going from “GATTCCCTCCGCCGCCACCCGCGAGAGGGAGACGCCGGCGCGGAGTCACCTAGTGCAG” to “ATAATTTGGTGTTACAGTAAACATTTGCTAATAATGGATTCGGAGTCACCTAGTGCAG”, the binding signal rises from 3200 fluorescence intensity (a.u.) to 49500 fluorescence intensity (a.u.).

Going from “CCCAACACGGCCCATGGAGGCATCCACGTTTTGAACGAGCCGGAGTCACCTAGTGCAG” to “AACCCTAGCCACTCTCGTTTCATTGGTCTGACTTATTGGGCGGAGTCACCTAGTGCAG”, the binding signal rises from 3720 fluorescence intensity (a.u.) to 14700 fluorescence intensity (a.u.).
